Source: PMC13539869, “Dpb11 facilitates the colocalization of Mec1-Ddc2 with its activators on gapped DNA” (Cell reports, 2026)
No constants are given. Whether binding was seen depends on the method and setting. Binding seen in cells or lysates may run through a third protein. Some entries that bind do so weakly or less than the wild type.

By UniProt entry, the sequences of proteins in these tests, tags left out.
UniProt P38111: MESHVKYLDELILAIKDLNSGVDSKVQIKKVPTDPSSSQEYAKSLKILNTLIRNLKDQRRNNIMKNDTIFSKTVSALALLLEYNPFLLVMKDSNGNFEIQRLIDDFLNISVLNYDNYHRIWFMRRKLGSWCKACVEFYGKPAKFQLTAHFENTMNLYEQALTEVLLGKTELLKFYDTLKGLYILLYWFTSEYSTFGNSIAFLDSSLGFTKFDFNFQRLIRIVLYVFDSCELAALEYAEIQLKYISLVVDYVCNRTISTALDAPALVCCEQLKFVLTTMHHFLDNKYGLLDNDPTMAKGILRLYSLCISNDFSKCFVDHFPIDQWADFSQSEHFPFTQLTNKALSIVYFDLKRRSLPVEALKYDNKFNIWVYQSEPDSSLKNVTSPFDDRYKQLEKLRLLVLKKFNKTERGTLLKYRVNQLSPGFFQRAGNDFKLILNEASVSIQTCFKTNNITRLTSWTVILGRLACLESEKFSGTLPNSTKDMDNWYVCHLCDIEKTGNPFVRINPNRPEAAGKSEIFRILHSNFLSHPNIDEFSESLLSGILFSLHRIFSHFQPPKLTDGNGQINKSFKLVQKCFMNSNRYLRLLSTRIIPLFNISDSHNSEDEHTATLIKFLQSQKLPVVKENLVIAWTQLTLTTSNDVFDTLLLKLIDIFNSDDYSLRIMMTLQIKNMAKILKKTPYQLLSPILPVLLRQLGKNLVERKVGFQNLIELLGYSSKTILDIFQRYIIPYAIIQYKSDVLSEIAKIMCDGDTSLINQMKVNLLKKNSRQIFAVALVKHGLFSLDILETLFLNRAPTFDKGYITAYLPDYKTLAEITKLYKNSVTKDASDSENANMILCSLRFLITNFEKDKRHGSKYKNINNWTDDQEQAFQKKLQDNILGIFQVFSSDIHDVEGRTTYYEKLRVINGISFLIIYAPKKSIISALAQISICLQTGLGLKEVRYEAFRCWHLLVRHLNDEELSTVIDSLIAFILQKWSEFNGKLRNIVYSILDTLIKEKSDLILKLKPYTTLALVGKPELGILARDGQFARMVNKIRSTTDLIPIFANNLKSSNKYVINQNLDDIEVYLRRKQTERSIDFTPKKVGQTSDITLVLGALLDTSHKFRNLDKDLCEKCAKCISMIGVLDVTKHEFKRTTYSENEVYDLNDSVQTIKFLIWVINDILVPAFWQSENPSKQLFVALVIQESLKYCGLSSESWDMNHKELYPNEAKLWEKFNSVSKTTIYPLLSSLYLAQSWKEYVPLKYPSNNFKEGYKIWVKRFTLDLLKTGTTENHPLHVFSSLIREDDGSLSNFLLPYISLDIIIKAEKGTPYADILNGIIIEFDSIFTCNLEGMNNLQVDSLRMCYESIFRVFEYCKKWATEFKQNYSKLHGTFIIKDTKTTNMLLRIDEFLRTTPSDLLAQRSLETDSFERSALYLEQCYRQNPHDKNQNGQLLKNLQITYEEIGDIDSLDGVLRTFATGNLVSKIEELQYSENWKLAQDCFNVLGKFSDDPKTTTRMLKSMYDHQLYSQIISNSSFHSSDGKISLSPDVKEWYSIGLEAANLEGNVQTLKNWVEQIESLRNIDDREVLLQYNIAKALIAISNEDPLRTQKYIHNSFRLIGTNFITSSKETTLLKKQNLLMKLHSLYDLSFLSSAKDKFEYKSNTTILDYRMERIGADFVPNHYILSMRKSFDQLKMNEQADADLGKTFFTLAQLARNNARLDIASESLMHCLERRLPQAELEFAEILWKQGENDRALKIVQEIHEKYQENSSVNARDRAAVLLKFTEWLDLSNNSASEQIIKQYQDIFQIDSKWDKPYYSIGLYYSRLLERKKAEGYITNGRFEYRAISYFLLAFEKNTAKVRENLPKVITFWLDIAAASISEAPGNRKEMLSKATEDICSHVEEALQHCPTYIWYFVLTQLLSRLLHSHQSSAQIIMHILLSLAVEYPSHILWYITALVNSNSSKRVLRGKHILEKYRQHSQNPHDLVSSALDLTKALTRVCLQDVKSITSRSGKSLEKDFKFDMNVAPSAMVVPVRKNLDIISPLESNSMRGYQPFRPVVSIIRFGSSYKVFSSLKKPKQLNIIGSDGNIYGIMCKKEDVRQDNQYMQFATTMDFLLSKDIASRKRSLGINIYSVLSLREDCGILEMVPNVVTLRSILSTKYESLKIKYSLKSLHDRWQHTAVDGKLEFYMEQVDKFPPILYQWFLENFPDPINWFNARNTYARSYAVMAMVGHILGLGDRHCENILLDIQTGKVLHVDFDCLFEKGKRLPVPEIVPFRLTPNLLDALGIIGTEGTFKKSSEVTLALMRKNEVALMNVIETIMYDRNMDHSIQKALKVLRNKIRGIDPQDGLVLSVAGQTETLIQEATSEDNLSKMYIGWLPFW

What was measured:
[1] = target: Mec1(a) (Mec1 with C-terminal PreScission protease site and 3xFLAG tag) (S. cerevisiae) (UniProt P38111); assay: co-IP; FLAG-Ab beads in lysate of yeast co-overexpressing Mec1-3xFLAG and Ddc2; washes in Buffer A + 1 M NaCl + 1 mM ATP + 4 mM MgCl2; elution with 0.2 mg/mL FLAG peptide; fractions on SDS-PAGE
[2] = target: Mec1(b) (Mec1 with C-terminal S6 sequence and 3xFLAG tag) (S. cerevisiae) (UniProt P38111); assay: as above

- binding [1]: binds
- binding [2]: binds
B1: Ddc2 (protein, UniProt Q04377 1-747)
chain: MRRETVGEFSSDDDDDILLELGTRPPRFTQIPPSSAALQTQIPTTLEVTTTTLNNKQSKNDNQLVNQLNKAQGEASMLRDKINFLNIEREKEKNIQAVKVNELQVKHLQELAKLKQELQKLEDEKKFLQMEARGKSKREVITNVKPPSTTLSTNTNTITPDSSSVAIEAKPQSPQSKKRKISDNLLKKNMVPLNPNRIIPDETSLFLESILLHQIIGADLSTIEILNRLKLDYITEFKFKNFVIAKGAPIGKSIVSLLLRCKKTLTLDRFIDTLLEDIAVLIKEISVHPNESKLAVPFLVALMYQIVQFRPSATHNLALKDCFLFICDLIRIYHHVLKVPIHESNMNLHVEPQIFQYELIDYLIISYSFDLLEGILRVLQSHPKQTYMEFFDENILKSFEFVYKLALTISYKPMVNVIFSAVEVVNIITSIILNMDNSSDLKSLISGSWWRDCITRLYALLEKEIKSGDVYNENVDTTTLHMSKYHDFFGLIRNIGDNELGGLISKLIYTDRLQSVPRVISKEDIGMDSDKFTAPIIGYKMEKWLLKLKDEVLNIFENLLMIYGDDATIVNGEMLIHSSKFLSREQALMIERYVGQDSPNLDLRCHLIEHTLTIIYRLWKDHFKQLREEQIKQVESQLIMSLWRFLVCQTETVTANEREMRDHRHLVDSLHDLTIKDQASYYEDAFEDLPEYIEEELKMQLNKRTGRIMQVKYDEKFQEMARTILESKSFDLTTLEEADSLYISMGL
